Experimental data reported in article PMC4947123.
Results are given in words; binding and its absence hold for the method and conditions named. Binding seen in cells or lysates may run through a third protein. Some entries that bind do so weakly or less than the wild type.

Amino acid sequences for entries named in this document (tags omitted). A change or cut given only in a name is not applied to a line headed by its entry.
UniProt P56959: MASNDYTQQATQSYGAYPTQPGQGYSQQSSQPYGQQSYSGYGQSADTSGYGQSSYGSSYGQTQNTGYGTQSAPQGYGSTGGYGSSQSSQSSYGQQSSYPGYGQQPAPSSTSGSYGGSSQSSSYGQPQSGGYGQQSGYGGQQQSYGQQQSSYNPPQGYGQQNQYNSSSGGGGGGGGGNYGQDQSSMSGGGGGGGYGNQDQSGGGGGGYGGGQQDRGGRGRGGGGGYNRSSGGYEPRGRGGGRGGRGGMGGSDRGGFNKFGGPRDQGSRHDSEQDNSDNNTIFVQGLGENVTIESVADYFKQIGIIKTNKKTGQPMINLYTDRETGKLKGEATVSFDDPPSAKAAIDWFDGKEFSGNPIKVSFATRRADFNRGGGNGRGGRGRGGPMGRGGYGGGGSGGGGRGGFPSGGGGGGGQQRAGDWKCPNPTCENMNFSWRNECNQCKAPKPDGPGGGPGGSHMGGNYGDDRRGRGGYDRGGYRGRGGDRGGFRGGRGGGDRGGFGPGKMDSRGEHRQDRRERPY

Columns and labels:
Assay in all cases: co-IP; endogenous proteins, N2A lysate (20 mM Tris-HCl pH 7.5, 150 mM NaCl, 1 % NP-40, 10 % glycerol), IP with antibodies against Atxn2, Fus or Tdp-43, protein A or G magnetic beads, immunoblot; IgG control
[1] = target: T1, endogenous Atxn2 (mouse (endogenous in N2A)) (UniProt O70305)
T1 sequence: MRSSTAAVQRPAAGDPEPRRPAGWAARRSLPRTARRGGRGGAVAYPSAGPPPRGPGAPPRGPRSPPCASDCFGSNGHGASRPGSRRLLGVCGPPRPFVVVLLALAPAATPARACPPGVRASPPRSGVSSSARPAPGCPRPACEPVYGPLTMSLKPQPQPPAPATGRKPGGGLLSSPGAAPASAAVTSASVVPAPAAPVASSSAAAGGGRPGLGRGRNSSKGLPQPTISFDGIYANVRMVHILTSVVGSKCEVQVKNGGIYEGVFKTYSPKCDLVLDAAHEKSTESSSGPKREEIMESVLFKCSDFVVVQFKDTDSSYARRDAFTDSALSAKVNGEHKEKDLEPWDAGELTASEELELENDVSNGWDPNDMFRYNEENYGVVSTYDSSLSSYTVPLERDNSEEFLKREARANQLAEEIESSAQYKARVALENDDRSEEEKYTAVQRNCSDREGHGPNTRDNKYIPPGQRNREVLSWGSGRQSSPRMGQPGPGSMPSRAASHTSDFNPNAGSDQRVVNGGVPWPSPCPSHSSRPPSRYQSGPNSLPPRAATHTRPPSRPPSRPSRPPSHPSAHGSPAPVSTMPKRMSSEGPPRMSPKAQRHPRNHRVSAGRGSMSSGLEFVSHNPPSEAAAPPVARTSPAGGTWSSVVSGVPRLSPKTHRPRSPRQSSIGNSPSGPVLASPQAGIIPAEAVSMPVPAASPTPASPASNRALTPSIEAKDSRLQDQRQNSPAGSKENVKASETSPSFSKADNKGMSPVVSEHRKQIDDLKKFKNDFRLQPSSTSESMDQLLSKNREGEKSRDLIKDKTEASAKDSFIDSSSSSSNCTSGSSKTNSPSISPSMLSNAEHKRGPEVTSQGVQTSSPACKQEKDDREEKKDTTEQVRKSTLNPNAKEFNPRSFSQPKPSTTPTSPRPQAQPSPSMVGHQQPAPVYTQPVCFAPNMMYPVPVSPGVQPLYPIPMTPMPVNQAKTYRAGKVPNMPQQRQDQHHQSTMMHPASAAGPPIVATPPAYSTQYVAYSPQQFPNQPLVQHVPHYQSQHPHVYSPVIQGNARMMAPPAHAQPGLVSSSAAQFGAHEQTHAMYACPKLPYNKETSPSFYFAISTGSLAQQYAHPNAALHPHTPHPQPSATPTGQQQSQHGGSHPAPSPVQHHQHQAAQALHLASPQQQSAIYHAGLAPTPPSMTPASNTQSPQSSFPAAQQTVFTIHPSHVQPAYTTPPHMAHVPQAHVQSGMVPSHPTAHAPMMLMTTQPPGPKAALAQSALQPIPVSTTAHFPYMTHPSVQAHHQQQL

[2] = target: endogenous Fus (mouse (endogenous in N2A, NSC-34, primary mouse cortical neurons)) (UniProt P56959)
[3] = target: endogenous Tdp-43 (mouse (endogenous in N2A)) (UniProt Q921F2)

binding [1]: binds | binding [2]: binds | binding [3]: binds
B1: Caprin1 (protein, UniProt Q60865 1-707)
chain: MPSATSHSGSGSKSSGPPPPSGSSGSEAAAGAAAPASQHPATGTGAVQTEAMKQILGVIDKKLRNLEKKKGKLDDYQERMNKGERLNQDQLDAVSKYQEVTNNLEFAKELQRSFMALSQDIQKTIKKTARREQLMREEAEQKRLKTVLELQYVLDKLGDDDVRTDLKQGLSGVPILSEEELSLLDEFYKLVDPERDMSLRLNEQYEHASIHLWDLLEGKEKPVCGTTYKALKEIVERVFQSNYFDSTHNHQNGLCEEEEAASAPTVEDQVAEAEPEPAEEYTEQSEVESTEYVNRQFMAETQFSSGEKEQVDEWTVETVEVVNSLQQQPQAASPSVPEPHSLTPVAQSDPLVRRQRVQDLMAQMQGPYNFIQDSMLDFENQTLDPAIVSAQPMNPTQNMDMPQLVCPQVHSESRLAQSNQVPVQPEATQVPLVSSTSEGYTASQPLYQPSHATEQRPQKEPMDQIQATISLNTDQTTASSSLPAASQPQVFQAGTSKPLHSSGINVNAAPFQSMQTVFNMNAPVPPANEPETLKQQSQYQATYNQSFSSQPHQVEQTELQQDQLQTVVGTYHGSQDQPHQVPGNHQQPPQQNTGFPRSSQPYYNSRGVSRGGSRGARGLMNGYRGPANGFRGGYDGYRPSFSNTPNSGYSQSQFTAPRDYSGYQRDGYQQNFKRGSGQSGPRGAPRGRGGPPRPNRGMPQMNTQQVN
